Experimental data reported in publication doi:10.1101/2023.05.31.543024.
These are yes or no findings as the source states them, for the method shown. In cells and extracts the contact can be indirect. Some binding calls cover weakened binding; strength is not graded here. For some assays here: Where a sequence is shown, tags or fusion partners need not be part of it.

T1: DRG family regulatory protein 2 (DFRP2), endogenous (human (endogenous in HEK293T)) (UniProt Q9H446)
T1 sequence: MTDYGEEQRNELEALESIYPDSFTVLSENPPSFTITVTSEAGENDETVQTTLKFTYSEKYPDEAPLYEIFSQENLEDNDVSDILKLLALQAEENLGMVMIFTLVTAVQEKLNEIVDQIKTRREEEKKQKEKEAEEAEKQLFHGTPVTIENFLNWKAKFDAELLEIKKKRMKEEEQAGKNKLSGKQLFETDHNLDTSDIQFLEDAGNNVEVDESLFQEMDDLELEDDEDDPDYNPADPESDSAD

T2: HA-DRG2 ERAKY (E153L + R258I + A260Y + K262V + Y278D) (human) (UniProt P55039)
T2 sequence: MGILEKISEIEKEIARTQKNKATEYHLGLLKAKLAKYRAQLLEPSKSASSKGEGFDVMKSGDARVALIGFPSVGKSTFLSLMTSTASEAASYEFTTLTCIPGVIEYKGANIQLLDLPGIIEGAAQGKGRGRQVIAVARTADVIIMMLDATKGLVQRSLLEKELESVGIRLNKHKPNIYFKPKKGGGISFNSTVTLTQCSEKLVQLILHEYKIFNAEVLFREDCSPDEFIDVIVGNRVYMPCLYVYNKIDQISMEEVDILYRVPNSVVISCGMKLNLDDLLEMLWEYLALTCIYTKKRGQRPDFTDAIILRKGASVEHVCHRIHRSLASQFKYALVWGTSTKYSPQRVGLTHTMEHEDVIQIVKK

T3: HA-DRG2 wildtype (human) (UniProt P55039)
T3 sequence: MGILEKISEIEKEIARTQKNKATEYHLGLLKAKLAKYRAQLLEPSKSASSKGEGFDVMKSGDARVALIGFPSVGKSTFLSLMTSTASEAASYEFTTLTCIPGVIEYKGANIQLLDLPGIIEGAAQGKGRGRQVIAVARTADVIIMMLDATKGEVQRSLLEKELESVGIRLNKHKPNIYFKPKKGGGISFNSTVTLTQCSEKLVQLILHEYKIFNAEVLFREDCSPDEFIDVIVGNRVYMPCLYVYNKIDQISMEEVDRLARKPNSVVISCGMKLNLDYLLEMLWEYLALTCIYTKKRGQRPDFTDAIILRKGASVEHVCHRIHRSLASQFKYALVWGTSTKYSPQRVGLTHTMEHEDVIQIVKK

T4: HA-DRG1 wildtype (human) (UniProt Q9Y295)
T4 sequence: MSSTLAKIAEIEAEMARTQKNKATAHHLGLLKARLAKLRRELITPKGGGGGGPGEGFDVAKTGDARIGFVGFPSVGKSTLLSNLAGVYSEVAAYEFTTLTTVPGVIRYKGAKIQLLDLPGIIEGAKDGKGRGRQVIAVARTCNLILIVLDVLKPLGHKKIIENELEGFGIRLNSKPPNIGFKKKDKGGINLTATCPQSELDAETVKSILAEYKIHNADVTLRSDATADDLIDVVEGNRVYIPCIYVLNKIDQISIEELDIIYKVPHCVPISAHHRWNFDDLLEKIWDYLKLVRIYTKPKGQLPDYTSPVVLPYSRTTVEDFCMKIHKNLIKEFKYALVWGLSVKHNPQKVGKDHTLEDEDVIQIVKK

T5: DRG1-Flag LIYVD (L155E + I260R + Y262A + V264K + D280Y) (human) (UniProt Q9Y295)
T5 sequence: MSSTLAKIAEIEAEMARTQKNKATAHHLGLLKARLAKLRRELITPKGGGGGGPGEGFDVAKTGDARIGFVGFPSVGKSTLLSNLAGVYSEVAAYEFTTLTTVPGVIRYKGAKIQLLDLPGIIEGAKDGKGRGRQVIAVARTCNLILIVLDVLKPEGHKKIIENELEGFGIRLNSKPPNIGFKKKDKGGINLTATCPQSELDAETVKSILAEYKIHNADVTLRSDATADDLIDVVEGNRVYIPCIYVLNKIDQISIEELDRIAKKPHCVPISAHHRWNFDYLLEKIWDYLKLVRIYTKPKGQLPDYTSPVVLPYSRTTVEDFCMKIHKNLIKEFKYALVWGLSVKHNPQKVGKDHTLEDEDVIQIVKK

T6: DRG2-Flag wildtype (human) (UniProt P55039)
T6 sequence: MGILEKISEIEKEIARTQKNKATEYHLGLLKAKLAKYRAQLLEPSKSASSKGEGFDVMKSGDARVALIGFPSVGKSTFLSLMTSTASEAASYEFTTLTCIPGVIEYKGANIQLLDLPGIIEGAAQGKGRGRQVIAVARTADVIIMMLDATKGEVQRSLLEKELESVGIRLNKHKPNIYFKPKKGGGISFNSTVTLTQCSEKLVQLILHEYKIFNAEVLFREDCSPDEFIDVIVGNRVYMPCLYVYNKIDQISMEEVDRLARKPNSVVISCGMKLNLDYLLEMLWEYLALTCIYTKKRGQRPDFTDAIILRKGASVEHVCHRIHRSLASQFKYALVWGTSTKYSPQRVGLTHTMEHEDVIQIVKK

T7: HA-DRG1 LIYVD (L155E + I260R + Y262A + V264K + D280Y) (human) (UniProt Q9Y295)
T7 sequence: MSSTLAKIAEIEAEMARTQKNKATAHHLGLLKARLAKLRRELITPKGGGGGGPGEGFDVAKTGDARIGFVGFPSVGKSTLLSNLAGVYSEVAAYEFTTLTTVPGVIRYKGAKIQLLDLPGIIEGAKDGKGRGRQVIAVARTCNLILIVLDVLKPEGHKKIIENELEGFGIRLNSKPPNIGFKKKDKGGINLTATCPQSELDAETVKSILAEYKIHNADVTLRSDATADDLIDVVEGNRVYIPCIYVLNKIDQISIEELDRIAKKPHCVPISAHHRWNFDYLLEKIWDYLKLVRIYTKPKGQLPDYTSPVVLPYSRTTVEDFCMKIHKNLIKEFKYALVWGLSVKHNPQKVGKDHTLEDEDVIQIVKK


Key:
Assay in all cases: co-IP
[1] = target: T1, DRG family regulatory protein 2 (DFRP2), endogenous (human (endogenous in HEK293T))
[2] = target: T2, HA-DRG2 ERAKY (E153L + R258I + A260Y + K262V + Y278D) (human)
HA-DRG2 wildtype (human) = target: T3, HA-DRG2 wildtype (human)
HA-DRG1 wildtype (human) = target: T4, HA-DRG1 wildtype (human)
[3] = target: T5, DRG1-Flag LIYVD (L155E + I260R + Y262A + V264K + D280Y) (human)
[4] = target: T6, DRG2-Flag wildtype (human)
[5] = target: T7, HA-DRG1 LIYVD (L155E + I260R + Y262A + V264K + D280Y) (human)

binding [1]	binding [2]	binding (HA-DRG2 wildtype (human))	binding (HA-DRG1 wildtype (human))	binding [3]	binding [4]	binding [5]	Binder
binds	–	–	–	–	–	–	Developmentally Regulated GTP-binding protein 2 (DRG2), endogenous (protein, UniProt P55039 1-364) MGILEKISEIEKEIARTQKNKATEYHLGLLKAKLAKYRAQLLEPSKSASSKGEGFDVMKSGDARVALIGFPSVGKSTFLSLMTSTASEAASYEFTTLTCIPGVIEYKGANIQLLDLPGIIEGAAQGKGRGRQVIAVARTADVIIMMLDATKGEVQRSLLEKELESVGIRLNKHKPNIYFKPKKGGGISFNSTVTLTQCSEKLVQLILHEYKIFNAEVLFREDCSPDEFIDVIVGNRVYMPCLYVYNKIDQISMEEVDRLARKPNSVVISCGMKLNLDYLLEMLWEYLALTCIYTKKRGQRPDFTDAIILRKGASVEHVCHRIHRSLASQFKYALVWGTSTKYSPQRVGLTHTMEHEDVIQIVKK
–	no binding	no binding	binds	–	–	–	V5-DFRP1 1-295 (domain or fragment, UniProt Q8WU90 1-295) MPPKKQAQAGGSKKAEQKKKEKIIEDKTFGLKNKKGAKQQKFIKAVTHQVKFGQQNPRQVAQSEAEKKLKKDDKKKELQELNELFKPVVAAQKISKGADPKSVVCAFFKQGQCTKGDKCKFSHDLTLERKCEKRSVYIDARDEELEKDTMDNWDEKKLEEVVNKKHGEAEKKKPKTQIVCKHFLEAIENNKYGWFWVCPGGGDICMYRHALPPGFVLKKDKKKEEKEDEISLEDLIERERSALGPNVTKITLESFLAWKKRKRQEKIDKLEQDMERRKADFKAGKALVISGREVF
–	–	binds	–	binds	binds	binds	DFRP2-V5 (protein, UniProt Q9H446 1-243) MTDYGEEQRNELEALESIYPDSFTVLSENPPSFTITVTSEAGENDETVQTTLKFTYSEKYPDEAPLYEIFSQENLEDNDVSDILKLLALQAEENLGMVMIFTLVTAVQEKLNEIVDQIKTRREEEKKQKEKEAEEAEKQLFHGTPVTIENFLNWKAKFDAELLEIKKKRMKEEEQAGKNKLSGKQLFETDHNLDTSDIQFLEDAGNNVEVDESLFQEMDDLELEDDEDDPDYNPADPESDSAD
